These are yes or no findings as the source states them, for the method shown. Some results given as binding are weak or reduced against the parent protein; the word gives no strength.
Target: T1, bovine CD40 receptor (Bos taurus (bovine)) (UniProt Q28203)
T1 sequence: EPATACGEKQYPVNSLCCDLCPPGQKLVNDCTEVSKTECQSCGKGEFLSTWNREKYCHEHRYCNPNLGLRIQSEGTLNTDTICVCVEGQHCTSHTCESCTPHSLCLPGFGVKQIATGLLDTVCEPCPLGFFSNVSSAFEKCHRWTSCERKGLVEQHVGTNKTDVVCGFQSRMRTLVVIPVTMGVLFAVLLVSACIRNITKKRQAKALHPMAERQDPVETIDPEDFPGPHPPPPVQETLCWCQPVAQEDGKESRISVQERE
Assay: flow cytometry on Cos7 cells transfected with bovine CD40 or not; detection with anti-GST antibodies and PE-anti-rabbit IgG; GST alone as control

The chains behind the UniProt entries cited, without tags or fusion partners. Where a name states a change or a piece, a line headed by the entry shows the natural chain unless it says otherwise.
UniProt P51749: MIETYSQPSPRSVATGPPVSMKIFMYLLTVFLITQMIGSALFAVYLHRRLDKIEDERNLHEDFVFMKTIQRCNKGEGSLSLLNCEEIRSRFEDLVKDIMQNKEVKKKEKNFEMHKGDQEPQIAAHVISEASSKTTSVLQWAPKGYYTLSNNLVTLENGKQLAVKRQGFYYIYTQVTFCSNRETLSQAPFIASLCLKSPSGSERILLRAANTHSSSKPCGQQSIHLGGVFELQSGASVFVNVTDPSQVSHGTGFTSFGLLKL

binding: binds
Substance: GST-fusion CD40L proteins (bovine CD40L fused to glutathione S-transferase, produced in BL21-A1 bacteria) (from UniProt P51749 113-261) (ligand)

From patent publication US20140050732A1
